Assay results from the M2OR odorant receptor database.
The list shows a part of the results, in another mix than the full data. The calls were merged from several studies; some rest on single wells. This is one part of the list.

What was measured:
Details in all cases: stereoisomer not certain
[1] = tested on: T1, O5AU1
T1 sequence (whole entry): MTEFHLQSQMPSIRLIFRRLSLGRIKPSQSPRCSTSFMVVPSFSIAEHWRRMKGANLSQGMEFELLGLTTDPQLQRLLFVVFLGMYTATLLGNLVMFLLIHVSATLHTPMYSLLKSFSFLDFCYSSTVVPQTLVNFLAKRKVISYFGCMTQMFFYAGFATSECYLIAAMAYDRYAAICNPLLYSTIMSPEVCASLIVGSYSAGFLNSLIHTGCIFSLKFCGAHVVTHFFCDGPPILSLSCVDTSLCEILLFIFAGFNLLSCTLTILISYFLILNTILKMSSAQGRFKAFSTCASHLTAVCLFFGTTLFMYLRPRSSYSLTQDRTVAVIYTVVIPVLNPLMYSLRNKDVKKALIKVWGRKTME
In short: (§1)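 Transient luciferase assays in mammalian cell lines were common, though methods varied by source. The values come from published papers and their supplementary material, with extra details from the original authors when needed. Responsive refers to a measured signal the original authors judged statistically different from baseline, and non-responsive (inactive) to the remainder.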

[2] = tested on: T2, O5H14
T2 sequence (whole entry): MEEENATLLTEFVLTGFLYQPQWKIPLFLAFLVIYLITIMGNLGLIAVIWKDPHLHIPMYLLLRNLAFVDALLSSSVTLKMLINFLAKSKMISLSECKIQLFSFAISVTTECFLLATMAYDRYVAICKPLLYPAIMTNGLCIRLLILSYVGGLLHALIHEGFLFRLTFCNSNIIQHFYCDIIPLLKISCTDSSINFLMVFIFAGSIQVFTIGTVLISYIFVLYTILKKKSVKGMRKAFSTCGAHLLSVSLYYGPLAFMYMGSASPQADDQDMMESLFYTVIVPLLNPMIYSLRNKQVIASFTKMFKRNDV
In short: as §1

[3] = tested on: T3, O6C68
T3 sequence (whole entry): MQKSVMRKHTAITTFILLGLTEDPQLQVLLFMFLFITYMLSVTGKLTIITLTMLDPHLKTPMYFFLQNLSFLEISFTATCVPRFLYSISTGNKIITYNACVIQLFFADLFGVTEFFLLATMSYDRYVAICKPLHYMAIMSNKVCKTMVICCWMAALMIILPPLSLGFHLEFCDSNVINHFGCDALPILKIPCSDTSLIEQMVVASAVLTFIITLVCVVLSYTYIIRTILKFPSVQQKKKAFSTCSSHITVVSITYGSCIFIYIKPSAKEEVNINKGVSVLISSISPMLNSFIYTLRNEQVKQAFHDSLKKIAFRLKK
In short: as §1

[4] = tested on: T4, O6C70
T4 sequence (whole entry): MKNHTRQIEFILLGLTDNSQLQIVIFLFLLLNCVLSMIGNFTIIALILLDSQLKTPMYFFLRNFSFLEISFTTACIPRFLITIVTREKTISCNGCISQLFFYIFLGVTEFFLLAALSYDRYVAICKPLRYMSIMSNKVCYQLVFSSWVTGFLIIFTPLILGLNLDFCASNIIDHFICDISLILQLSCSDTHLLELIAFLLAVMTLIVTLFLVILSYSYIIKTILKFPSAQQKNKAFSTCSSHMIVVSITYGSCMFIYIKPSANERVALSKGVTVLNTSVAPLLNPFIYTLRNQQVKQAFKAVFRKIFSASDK
In short: as §1

[5] = tested on: T5, O7E24
T5 sequence (whole entry): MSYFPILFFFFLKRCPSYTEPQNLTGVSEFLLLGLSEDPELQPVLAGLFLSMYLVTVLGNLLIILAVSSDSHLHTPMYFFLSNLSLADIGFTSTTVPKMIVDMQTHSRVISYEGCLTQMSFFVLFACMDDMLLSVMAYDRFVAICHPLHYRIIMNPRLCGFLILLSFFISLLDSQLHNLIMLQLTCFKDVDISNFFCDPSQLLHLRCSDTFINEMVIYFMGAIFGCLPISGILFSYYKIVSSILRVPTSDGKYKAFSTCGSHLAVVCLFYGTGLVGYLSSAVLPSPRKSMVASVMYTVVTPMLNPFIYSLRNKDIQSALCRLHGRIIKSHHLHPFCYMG
In short: as §1

[6] = target: T6, OR10A3 (Homo sapiens) (UniProt P58181)
T6 sequence (whole entry): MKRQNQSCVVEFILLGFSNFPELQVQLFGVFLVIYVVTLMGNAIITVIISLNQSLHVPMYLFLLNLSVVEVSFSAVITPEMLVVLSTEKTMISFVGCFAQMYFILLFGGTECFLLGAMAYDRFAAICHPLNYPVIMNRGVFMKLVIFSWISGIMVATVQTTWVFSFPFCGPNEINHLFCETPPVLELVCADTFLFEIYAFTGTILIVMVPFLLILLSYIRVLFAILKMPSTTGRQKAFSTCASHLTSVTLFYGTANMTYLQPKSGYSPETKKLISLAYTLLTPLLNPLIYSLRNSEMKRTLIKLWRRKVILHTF
In short: as §1

[7] = target: T7, OR10A5 (Homo sapiens) (UniProt Q9H207)
T7 sequence (whole entry): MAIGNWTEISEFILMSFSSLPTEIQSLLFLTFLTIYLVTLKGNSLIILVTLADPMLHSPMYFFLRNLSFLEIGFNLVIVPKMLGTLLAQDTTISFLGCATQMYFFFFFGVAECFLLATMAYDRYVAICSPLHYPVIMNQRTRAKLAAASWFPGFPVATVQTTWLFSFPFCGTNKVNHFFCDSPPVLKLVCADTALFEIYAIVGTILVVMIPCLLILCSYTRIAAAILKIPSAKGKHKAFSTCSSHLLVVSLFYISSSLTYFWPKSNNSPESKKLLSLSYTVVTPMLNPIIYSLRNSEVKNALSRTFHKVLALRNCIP
In short: as §1

[8] = target: T8, OR10A6 (Homo sapiens) (UniProt Q8NH74)
T8 sequence (whole entry): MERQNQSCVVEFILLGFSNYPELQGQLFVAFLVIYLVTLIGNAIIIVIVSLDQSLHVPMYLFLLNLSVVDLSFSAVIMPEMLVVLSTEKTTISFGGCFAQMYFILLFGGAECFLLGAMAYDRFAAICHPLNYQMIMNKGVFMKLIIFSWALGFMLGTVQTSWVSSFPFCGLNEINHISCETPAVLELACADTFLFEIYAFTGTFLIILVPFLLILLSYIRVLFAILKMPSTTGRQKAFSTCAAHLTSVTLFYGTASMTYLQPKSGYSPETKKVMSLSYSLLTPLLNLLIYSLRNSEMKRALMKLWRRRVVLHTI
In short: as §1

[9] = target: T9, OR10A7 (Homo sapiens) (UniProt Q8NGE5)
T9 sequence (whole entry): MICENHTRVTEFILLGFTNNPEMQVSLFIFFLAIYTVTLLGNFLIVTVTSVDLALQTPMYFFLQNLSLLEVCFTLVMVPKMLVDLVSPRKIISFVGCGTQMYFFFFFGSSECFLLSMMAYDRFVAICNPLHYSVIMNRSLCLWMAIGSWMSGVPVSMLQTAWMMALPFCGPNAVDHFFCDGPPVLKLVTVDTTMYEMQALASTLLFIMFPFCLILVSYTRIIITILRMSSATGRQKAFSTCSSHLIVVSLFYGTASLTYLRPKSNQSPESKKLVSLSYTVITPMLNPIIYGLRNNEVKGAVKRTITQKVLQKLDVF
In short: as §1

[10] = target: T10, OR10AG1 (Homo sapiens) (UniProt Q8NH19)
T10 sequence (whole entry): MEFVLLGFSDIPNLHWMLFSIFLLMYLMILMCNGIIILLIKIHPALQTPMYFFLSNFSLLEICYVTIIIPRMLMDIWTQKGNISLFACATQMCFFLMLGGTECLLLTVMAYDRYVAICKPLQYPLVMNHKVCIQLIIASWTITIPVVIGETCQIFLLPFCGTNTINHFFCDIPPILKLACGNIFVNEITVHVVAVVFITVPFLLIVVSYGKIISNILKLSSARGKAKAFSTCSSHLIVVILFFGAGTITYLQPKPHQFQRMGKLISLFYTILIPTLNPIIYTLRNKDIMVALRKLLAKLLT
In short: as §1

Measured: odorant receptor agonist call;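 note: active if original authors judged signal statistically different from baseline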

CCC(C)=O
inactive: [1] | [2] | [3] | [4] | [5] | [6] | [7] | [8] | [9] | [10]
